Experimental data taken from PMC6579518.
Results are given in words; binding and its absence hold for the method and conditions named. Binding calls can cover weak binding; strength is not graded here. For some assays here: In cells and extracts the contact can be indirect.

By UniProt entry, the sequences of proteins in these tests, tags left out. Where a name states a change or a piece, a line headed by the entry shows the natural chain unless it says otherwise.
UniProt P04449: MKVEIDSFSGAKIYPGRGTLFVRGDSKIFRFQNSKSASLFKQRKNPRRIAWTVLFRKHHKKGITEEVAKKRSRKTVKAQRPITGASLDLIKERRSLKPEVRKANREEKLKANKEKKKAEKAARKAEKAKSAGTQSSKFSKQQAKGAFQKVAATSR
UniProt P05738: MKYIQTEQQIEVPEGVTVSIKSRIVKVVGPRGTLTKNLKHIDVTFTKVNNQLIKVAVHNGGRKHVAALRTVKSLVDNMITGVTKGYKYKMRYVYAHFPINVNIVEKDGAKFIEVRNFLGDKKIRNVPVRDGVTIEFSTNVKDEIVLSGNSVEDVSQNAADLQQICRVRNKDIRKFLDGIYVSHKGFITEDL

Legend:
[1] = biological target: ribosomal protein eL24 (S. cerevisiae (endogenous in the Lsg1-TAP strain)) (UniProt P04449); test: cross-linking; XL-MS: Lsg1-TAP pre-ribosomal particles (tandem affinity purified, BY4741) cross-linked with 1.5 mM DSS d0/d12 in 20 mM HEPES pH 8.3, 5 mM MgCl2; trypsin, LC-MS/MS, xQuest; two biological replicates
[2] = biological target: ribosomal protein eL24 (S. cerevisiae (endogenous in the Lsg1-TAP strain)) (UniProt P04449); test: cryo-EM structure; native pre-60S particles purified by Lsg1-TAP from S. cerevisiae, 0.5% glutaraldehyde 10 min 4°C, 40 nM on grids; six states (I-VI) by 3D classification, 3.1-3.9 Å
[3] = biological target: ribosomal protein uL6 (S. cerevisiae (endogenous in the Lsg1-TAP strain)) (UniProt P05738); test: as above

| binding [1] | binding [2] | binding [3] | Binder |
| --- | --- | --- | --- |
| binds | binds |  | Reh1 (protein, UniProt Q06709 1-432) MSSTFFTCNCCVIQFKTSDLQRYHMKTEWHRYNLKRRIANLPPIGAEQFAEKLQISEKEQAENQVDEFGFPVLKPVMNQSNALPQKQKKPIKSKRGRKVGTNLLKRKDRDIAKEKQNRSVSPSGSISSQLSNLTVGTENTNTDYGEDTVSEYGFTSDSNYEYATSDEELDIADKPSDKENEKITITECIYCGKDNKEVERNVKHMFSEHGLFIPERSYLIDLNGLLEFLIKMIVIDHNCLCCNFHGSGLESIRAHMASKRHCRLPYETKEERQLFAPFYDFTYDDHSISKNLQNDRAITSKLSSVYGAKNDEEDGEVDITLVSSENDINANYTTVSIDESGLELTLPTGARLGHRAGQRYYRQNLPSQPNPNESRRTITAADRRMVSGVTEKQYKKGMKKMQQLEKNAINTQIRREIKRVNFQTHYRDELLQ |
| binds | binds |  | Rei1 (protein, UniProt P38344 1-393) MSSSGVYTCNSCVLTFDSSDEQRAHMKSDWHRYNLKRRVAQLPPISFETFDSKVSAAAASTSKSAEKEKPVTKKELKRREKQALLEKKKKLLEIARANMLENMQKSQEGNTPDLSKLSLQENEENKEKEEPKKEEPEQLTEEEMAERVMQEKLRNRVDIPLEQCLFCEHNKHFKDVEENLEHMFRTHGFYIPEQKYLVDKIGLVKYMSEKIGLGNICIVCNYQGRTLTAVRQHMLAKRHCKIPYESEDERLEISEFYDFTSSYANFNSNTTPDNEDDWEDVGSDEAGSDDEDLPQEYLYNDGIELHLPTGIKVGHRSLQRYYKQDLKPEVILTEGQGTLVAAETRSFLPAFDKKGVQTQQRVWQTERFDKKRLDKRSAKFVNNQPHYRDQLLQ |
|  |  | binds | Yvh1 (protein, UniProt Q02256 1-364) MAGNANSVDEEVTRILGGIYLGGIRPIIDHRPLGAEFNITHILSVIKFQVIPEYLIRKGYTLKNIPIDDDDVTDVLQYFDETNRFIDQCLFPNEVEYSPRLVDFKKKPQRGAVFAHCQAGLSRSVTFIVAYLMYRYGLSLSMAMHAVKRKKPSVEPNENFMEQLHLFEKMGGDFVDFDNPAYKQWKLKQSIKLDPSGSELVSNSGMFKDSESSQDLDKLTEAEKSKVTAVRCKKCRTKLALSTSFIAHDPPSKESSEGHFIKRAANSHRIIDIQESQANCSHFFIEPLKWMQPELQGKQELEGKFSCPGCSSKVGGYNWKGSRCSCGKWVIPAIHLQTSKVDQFPLQSTALPNMVNFESEKVNR |
